Here are results for 1 molecule from paper PMC6331613.

No constants are given. Whether binding was seen depends on the method and setting.

This assay has as its target T1, SUPPRESSOR OF MAX2 1-LIKE 7 (Arabidopsis) (UniProt O80875).
T1 sequence: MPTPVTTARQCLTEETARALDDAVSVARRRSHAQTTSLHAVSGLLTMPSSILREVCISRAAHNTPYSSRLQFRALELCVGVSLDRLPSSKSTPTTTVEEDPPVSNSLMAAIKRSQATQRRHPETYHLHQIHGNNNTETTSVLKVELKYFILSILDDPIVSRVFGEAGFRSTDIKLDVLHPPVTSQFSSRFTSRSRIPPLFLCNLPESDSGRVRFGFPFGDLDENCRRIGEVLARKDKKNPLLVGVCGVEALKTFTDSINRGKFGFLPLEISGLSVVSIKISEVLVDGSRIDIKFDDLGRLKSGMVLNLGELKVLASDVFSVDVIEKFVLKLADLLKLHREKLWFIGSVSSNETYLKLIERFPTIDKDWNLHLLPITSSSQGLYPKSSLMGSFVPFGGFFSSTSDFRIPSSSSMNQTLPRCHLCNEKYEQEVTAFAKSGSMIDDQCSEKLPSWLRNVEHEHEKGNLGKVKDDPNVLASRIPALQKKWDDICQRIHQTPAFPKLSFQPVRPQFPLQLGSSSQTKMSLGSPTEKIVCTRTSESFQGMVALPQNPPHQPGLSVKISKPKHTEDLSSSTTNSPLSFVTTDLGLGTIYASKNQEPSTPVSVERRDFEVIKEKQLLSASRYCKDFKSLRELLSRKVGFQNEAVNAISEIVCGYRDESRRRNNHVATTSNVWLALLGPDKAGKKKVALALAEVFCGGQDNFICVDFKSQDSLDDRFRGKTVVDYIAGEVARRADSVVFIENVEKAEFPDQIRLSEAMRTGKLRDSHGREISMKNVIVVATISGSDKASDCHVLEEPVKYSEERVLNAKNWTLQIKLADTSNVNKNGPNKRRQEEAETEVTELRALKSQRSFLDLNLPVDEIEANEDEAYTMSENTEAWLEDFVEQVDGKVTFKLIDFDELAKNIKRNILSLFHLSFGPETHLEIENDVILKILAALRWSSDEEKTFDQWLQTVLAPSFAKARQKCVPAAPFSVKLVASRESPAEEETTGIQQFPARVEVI
Put plainly: two-hybrid; AtD14 (wild type or mutant) in pGADT7, SMXL7 in pGBKT7, yeast PJ69-4A; growth on SD-Leu/-Trp/-His without or with SLs (10 uM rac-MeCLA or 10 uM 5DS; control acetone), 5 days at 30 °C.

B1: AtD14^R183H (Arabidopsis counterpart of the rice osd14-2 allele OsD14^R233H) (receptor, UniProt Q9SQR3 1-267)
chain: MSQHNILEALNVRVVGTGDRILFLAHGFGTDQSAWHLILPYFTQNYRVVLYDLVCAGSVNPDYFDFNRYTTLDPYVDDLLNIVDSLGIQNCAYVGHSVSAMIGIIASIRRPELFSKLILIGFSPRFLNDEDYHGGFEEGEIEKVFSAMEANYEAWVHGFAPLAVGADVPAAVREFSRTLFNMHPDISLFVSRTVFNSDLRGVLGLVRVPTCVIQTAKDVSVPASVAEYLRSHLGGDTTVETLKTEGHLPQLSAPAQLAQFLRRALPR
For the molecule B1, the binding result is listed as “no binding”.
